Assay results: article PMC12313707
These are yes or no findings as the source states them, for the method shown. In cells and extracts the contact can be indirect. Some entries that bind do so weakly or less than the wild type.

By UniProt entry, the sequences of proteins in these tests, tags left out.
UniProt Q61286: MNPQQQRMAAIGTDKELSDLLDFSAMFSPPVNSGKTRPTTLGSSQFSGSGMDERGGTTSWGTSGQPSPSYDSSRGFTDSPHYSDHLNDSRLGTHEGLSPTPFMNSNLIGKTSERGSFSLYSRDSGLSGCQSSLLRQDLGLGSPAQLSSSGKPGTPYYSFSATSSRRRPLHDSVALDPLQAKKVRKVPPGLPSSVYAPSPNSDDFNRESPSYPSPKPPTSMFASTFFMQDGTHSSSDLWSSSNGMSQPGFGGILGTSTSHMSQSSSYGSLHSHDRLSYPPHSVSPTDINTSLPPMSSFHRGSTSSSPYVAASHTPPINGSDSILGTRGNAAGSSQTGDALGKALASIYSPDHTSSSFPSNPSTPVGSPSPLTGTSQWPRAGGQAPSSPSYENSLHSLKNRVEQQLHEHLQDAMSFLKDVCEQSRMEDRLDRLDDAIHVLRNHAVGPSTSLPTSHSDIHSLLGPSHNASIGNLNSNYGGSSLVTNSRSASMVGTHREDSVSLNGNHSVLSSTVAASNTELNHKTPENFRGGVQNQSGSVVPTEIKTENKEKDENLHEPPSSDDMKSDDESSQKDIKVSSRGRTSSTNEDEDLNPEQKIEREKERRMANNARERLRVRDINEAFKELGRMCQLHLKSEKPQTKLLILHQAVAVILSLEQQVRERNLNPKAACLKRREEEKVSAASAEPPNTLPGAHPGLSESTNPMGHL

Target: TCF12, endogenous in WT mouse primary myoblasts (mouse (endogenous in primary myoblasts)) (UniProt Q61286)
Assay: co-IP; endogenous proteins in lysate of WT mouse primary myoblasts; IP with anti-TCF12 or anti-FBXL3 antibody overnight at 4°C, Protein A and G agarose beads (IP/Co-IP Kit, Absin); Western blot for FBXL3 and TCF12; normal IgG as control

B1: F-box and leucine-rich repeat protein 3 (FBXL3), endogenous in WT mouse primary myoblasts (protein, UniProt Q8C4V4 1-428)
chain: MKRGGRDSDQDSAEEGTAEKPKRPRTTQERSQPCDWGNLLQDIVLHVFKYLPLLDRAHASQVCRNWNQVFHMPDLWRCFEFELNQPATSYLKATHPELIKQIIKRHSNHLQYVSFKVDSSKESAEAACDILSQLVNCSLKTLGLISTARPSFMDLPKSHFISALTVVFVNSKSLSSLKIDDTPVDDPSLKVLVANNSDTLKLLKMSSCPHVSPAGILCVADQCHGLRELALNYHLLSDELLLALSSEKHVRLEHLRIDVVSENPGQTHFHTIQKSSWDAFIKHSPKVNLVMYFFLYEEEFDPFFRYEIPATHLYFGRSVSKDVLGRVGMTCPRLVELVVCANGLRPLDEELIRIAERCKNLSAIGLGECEVSCSAFVEFVKMCGGRLSQLSIMEEVLIPDQKYSLEQIHWEVSKHLGRVWFPDMMPTW
binding: binds
